In PMC8854734 one finds binding data, which are given here for 6 molecules.

Amino acid sequences for entries named in this document (tags omitted).
UniProt Q92731: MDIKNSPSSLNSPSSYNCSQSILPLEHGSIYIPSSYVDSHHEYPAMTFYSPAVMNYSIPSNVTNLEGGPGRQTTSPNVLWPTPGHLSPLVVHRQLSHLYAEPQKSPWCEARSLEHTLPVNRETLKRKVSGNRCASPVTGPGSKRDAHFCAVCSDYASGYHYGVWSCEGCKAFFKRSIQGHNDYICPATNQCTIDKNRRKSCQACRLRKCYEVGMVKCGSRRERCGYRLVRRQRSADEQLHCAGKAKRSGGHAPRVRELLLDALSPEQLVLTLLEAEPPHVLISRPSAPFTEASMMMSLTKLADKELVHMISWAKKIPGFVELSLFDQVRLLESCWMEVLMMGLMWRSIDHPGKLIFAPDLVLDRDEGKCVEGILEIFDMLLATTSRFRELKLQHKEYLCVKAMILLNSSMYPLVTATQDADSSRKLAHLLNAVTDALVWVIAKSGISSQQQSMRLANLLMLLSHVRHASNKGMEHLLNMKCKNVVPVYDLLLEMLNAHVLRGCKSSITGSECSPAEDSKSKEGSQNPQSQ
UniProt Q04206: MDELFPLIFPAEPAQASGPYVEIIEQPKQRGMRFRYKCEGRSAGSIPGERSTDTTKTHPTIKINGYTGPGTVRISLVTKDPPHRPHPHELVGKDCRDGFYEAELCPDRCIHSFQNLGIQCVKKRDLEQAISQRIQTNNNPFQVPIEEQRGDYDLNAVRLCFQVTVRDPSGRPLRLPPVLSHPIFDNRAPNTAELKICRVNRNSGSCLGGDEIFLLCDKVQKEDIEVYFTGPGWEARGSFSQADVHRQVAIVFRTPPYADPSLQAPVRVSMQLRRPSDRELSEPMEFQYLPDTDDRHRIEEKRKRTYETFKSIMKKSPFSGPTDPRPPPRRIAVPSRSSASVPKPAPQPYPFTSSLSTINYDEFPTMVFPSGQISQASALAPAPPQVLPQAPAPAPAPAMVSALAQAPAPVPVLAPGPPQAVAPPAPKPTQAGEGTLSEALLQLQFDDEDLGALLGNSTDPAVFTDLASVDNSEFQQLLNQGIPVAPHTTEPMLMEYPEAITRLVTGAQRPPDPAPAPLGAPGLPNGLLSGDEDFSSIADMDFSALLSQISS
UniProt O75530: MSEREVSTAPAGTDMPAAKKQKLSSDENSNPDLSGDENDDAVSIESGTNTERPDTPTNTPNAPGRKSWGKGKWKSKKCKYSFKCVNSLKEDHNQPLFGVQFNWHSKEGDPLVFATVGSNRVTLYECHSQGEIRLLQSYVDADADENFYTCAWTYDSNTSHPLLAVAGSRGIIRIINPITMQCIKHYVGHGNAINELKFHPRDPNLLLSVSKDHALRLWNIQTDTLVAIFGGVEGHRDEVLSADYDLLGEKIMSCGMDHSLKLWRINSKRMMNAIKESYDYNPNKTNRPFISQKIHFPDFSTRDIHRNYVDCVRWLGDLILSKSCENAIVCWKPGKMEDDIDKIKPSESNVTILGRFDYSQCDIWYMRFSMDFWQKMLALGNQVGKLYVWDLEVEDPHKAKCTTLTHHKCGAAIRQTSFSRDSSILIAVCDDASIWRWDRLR
UniProt Q15022: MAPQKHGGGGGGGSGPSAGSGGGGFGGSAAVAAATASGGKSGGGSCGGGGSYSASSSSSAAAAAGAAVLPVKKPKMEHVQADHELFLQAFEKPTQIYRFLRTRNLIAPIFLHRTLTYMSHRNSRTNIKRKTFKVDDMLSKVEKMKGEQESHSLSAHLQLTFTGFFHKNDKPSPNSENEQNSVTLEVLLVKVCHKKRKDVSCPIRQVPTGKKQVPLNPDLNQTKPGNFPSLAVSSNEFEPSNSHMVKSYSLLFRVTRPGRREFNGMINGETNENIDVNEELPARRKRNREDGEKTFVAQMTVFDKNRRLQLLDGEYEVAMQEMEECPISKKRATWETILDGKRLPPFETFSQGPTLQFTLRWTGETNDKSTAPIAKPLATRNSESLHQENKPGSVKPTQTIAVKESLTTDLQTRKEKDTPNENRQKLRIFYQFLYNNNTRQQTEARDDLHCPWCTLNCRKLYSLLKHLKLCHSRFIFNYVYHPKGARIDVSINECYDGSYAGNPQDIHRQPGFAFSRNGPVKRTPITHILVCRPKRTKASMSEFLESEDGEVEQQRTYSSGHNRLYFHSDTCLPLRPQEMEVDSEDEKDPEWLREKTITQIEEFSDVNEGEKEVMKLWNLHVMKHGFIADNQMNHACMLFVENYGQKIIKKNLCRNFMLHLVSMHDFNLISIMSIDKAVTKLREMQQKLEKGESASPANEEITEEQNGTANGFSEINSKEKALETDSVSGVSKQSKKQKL

Assay [1] deals with Estrogen receptor beta (in 293 T cells) (UniProt Q92731). Briefly: co-IP; 293 T cells (Supplemental Fig. 3c); conditions not given.
In assay [2] the target is Estrogen receptor beta (human) (UniProt Q92731). The assay is described as follows: proximity ligation; proximity-based ligation assay, named only in the discussion; cells and conditions not told.
Assay [3] has the same target. Briefly: co-IP; nuclear lysates of MDA-MB-231-ERβ cells treated with or without dox and vehicle or E2; 500 µg protein, immunoprecipitation overnight at 4 °C with an ERβ antibody or a p65 antibody, Protein G Dynabeads, three washes with NETN buffer, western blotting.

These are yes or no findings as the source states them, for the method shown. Binding seen in cells or lysates may run through a third protein. Some entries that bind do so weakly or less than the wild type.

As to “NFκB/RELA (p65) (in 293 T cells) (from UniProt Q04206 1-551)”, in assay [1], the binding entry was “binds”.
Turning to “NFκB/RELA (p65) (from UniProt Q04206 1-551)”, the binding result in assay [2] and in assay [3] was “binds” throughout.
On to EED (from UniProt O75530 1-441), for which the binding result in assay [3] is “binds”.
Consider SUZ12 (from UniProt Q15022 1-739), for which the binding entry in assay [3] is on record as “binds”.

B1: RELB (protein, UniProt Q01201 1-579)
chain: MLRSGPASGPSVPTGRAMPSRRVARPPAAPELGALGSPDLSSLSLAVSRSTDELEIIDEYIKENGFGLDGGQPGPGEGLPRLVSRGAASLSTVTLGPVAPPATPPPWGCPLGRLVSPAPGPGPQPHLVITEQPKQRGMRFRYECEGRSAGSILGESSTEASKTLPAIELRDCGGLREVEVTACLVWKDWPHRVHPHSLVGKDCTDGICRVRLRPHVSPRHSFNNLGIQCVRKKEIEAAIERKIQLGIDPYNAGSLKNHQEVDMNVVRICFQASYRDQQGQMRRMDPVLSEPVYDKKSTNTSELRICRINKESGPCTGGEELYLLCDKVQKEDISVVFSRASWEGRADFSQADVHRQIAIVFKTPPYEDLEIVEPVTVNVFLQRLTDGVCSEPLPFTYLPRDHDSYGVDKKRKRGMPDVLGELNSSDPHGIESKRRKKKPAILDHFLPNHGSGPFLPPSALLPDPDFFSGTVSLPGLEPPGGPDLLDDGFAYDPTAPTLFTMLDLLPPAPPHASAVVCSGGAGAVVGETPGPEPLTLDSYQAPGPGDGGTASLVGSNMFPNHYREAAFGGGLLSPGPEAT
Take B1: the binding entry in assay [3] was “no binding”.

B2: RELB (in 293 T cells) (protein, UniProt Q01201 1-579)
chain: B1 chain
With B2, in assay [1], the binding result is on record as “no binding”.
